Measured values taken from US11965034B2, “Antifibrotic activity of CD47 blockade in the liver” (The Board of Trustees of the Leland Stanford Junior …, priority 2017, dated 2024).
For at least one compound, name, drawing or mass did not settle the structure.

Test system: c-Jun induced mice (bone marrow and skin fibrosis)
Assay: Systemic c-Jun induced bone marrow and skin fibrosis in vivo
Parameters: species or system mouse
Conditions: systemic c-Jun induction, drug i.p.
Text: Blockade of the VEGF and PI3K pathways reverse marrow and skin fibrosis in vivo. Encouraged by these findings, we sought to evaluate the efficacy of blocking the PI3K-AKT pathway in c-Jun mediated fibrosis in vivo. Wortmannin, a potent PI3K inhibitor, was systemically administered to mice for 14 days that were induced to express c-Jun two days prior to drug. […] Any effects on gastroesophageal or bladder were not assessed as the fibrosis in these organs takes longer to develop. Both Rosa26-rtTA control mice were treated with dox and c-Jun-inducible mice were treated with PBS. No fibrosis developed in either control condition in lung or other organs over the same time span. Thus, the PI3K and VEGFR pathways are critical mediators of c-Jun-induced fibrosis in mice and may be also involved in the development of human fibrosing conditions.
Tissue processing. Animals were sacrificed at times indicated based on an APLAC-approved protocol that includes assessment of morbidity by >10% loss of weight, scruffy appearance and lethargy. […] Images were analyzed in Adobe Photoshop (Adobe Systems, San Jose, CA). […] Flow cytometry was performed on a FACS Aria cytometer (BD Biosciences, San Jose, CA), at least 10,000 events were acquired, and data were analyzed using FlowJo software. […]

COC[C@H]1OC(=O)c2coc3c2[C@@]1(C)C1=C(C3=O)[C@@H]2CCC(=O)[C@@]2(C)C[C@H]1OC(C)=O [Wortmannin]
bone marrow fibrosis: complete suppression | skin fibrosis (dermal skin thickening and collagen deposition): complete suppression
